## Primary screen of a compound library

Protein sequences, listed by entry. Tags and fused reporters are not part of them. Residues count along the entry.
UniProt A4I591, 1-473: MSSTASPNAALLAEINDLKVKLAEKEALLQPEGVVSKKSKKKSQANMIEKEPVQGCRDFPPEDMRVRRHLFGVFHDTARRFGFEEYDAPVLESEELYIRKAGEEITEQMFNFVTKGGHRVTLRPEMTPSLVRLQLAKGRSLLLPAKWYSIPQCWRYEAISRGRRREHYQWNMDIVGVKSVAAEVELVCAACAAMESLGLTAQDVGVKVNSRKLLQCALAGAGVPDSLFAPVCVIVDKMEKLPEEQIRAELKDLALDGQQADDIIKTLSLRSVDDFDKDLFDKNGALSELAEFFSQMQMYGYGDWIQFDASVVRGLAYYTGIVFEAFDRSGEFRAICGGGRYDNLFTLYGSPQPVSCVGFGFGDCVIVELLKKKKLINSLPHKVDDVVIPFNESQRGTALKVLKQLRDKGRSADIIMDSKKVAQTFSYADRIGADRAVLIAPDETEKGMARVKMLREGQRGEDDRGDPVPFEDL
UniProt Q8IDJ8, 1-583: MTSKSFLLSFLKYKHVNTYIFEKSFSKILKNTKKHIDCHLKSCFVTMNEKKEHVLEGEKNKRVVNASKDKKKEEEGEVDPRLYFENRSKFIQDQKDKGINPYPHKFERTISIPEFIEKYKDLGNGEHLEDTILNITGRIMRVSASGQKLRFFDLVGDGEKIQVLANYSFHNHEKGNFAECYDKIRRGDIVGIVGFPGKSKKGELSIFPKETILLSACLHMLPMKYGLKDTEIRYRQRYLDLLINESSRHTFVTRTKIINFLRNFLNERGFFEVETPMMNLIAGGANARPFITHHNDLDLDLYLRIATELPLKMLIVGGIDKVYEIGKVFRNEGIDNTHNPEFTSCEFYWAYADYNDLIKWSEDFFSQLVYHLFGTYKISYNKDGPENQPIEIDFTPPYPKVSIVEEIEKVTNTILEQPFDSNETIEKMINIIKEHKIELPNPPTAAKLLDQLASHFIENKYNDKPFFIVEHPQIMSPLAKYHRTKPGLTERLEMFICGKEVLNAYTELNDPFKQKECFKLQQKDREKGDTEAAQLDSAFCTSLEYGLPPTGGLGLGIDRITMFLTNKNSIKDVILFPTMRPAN
UniProt Q4DA54, 1-478: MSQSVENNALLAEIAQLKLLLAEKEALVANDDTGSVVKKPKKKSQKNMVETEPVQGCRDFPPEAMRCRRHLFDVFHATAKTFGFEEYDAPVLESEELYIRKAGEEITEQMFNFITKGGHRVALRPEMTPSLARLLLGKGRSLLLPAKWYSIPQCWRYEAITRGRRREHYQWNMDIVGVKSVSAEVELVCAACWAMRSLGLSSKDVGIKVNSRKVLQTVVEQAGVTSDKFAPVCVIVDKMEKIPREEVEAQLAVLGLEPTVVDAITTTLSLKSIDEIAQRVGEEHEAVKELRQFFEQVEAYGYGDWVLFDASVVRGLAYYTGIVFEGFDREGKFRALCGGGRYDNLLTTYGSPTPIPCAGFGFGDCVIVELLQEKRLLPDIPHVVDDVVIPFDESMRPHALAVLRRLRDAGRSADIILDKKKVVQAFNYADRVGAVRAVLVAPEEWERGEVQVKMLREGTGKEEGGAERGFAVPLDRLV

From ChEMBL document CHEMBL3988442, “University of Dundee, Small-Polar-MMV Screening Library” (2021).

A: 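Histidine-tRNA ligase, Leishmania infantum (UniProt A4I591). Enzyme assay of histidyl-tRNA synthetase; the read-out is not stated. Concentration: 30 µM. The record gives no direction; compounds that gave an IC50 in retests scored well above the rest, so higher reads as stronger inhibition. The assay is labelled LdHisRS but filed under L. infantum. Of about 69,000 compounds tested this way, about 410 (0.6%) reached 50% or more in at least one test.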
B: 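Lysine-tRNA ligase, Plasmodium falciparum 3D7 (UniProt Q8IDJ8). Enzyme assay of the cytosolic lysyl-tRNA synthetase in 384-well plates, read by luminescence. Concentration: 30 µM. Higher reads as stronger inhibition, judged from the few compounds that gave an IC50. About 69,000 compounds were tested under these conditions; 0.071% (about 49) showed 50% or more at least once.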
C: 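Histidine-tRNA ligase, Trypanosoma cruzi CL Brener (UniProt Q4DA54). Enzyme assay of histidyl-tRNA synthetase; the read-out is not stated. Tested at 30 µM. Higher reads as stronger inhibition (inferred: compounds with an IC50 in retests scored well above the rest). Size under these conditions: about 69,000 compounds, about 31 of them at 50% or above in at least one test.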

The filed quantity is “Percent Effect” (%). The record does not define 0% and 100%; most values in the screen are far below 50% and negative numbers occur (in some assays of this library far below -100). Compounds were drawn at random from those tested, without regard to their results.

| compound | A | B | C |
|---|---|---|---|
| `Cc1cc(CN(C)C(=O)NC(C)c2nncn2C)no1` (centres undefined) | 16.35% | 8.243% | -1.626% |
| `CN(C)C(=O)c1nc2c(s1)CCN(C(=O)c1ccc(Cl)cc1)CC2` | 15.09% | 0.8543% | 3.784% |
| `CCOCC1c2c(cnn2C)CCN1C(=O)c1ccncn1` (centres undefined) | 11.97% | 6.58% | 7.362% |
| `CC(=O)N1CCN(CCCSCc2ccccc2)CC1` | -1.571% | -6.093% | 1.604% |
| `Cc1csc(C2CCCN(C(=O)c3cc(Cl)c[nH]3)C2)n1` (centres undefined) | -9.524% | 7.899% | 6.015% |
| `CN(CC(O)CO)c1nc(-c2cccnc2)nc2c1CCNC2` (centres undefined) | 7.853% | -0.3052% | 5.882% |
| `CCOc1cccc(NS(=O)(=O)c2cc(C)c(C(=O)O)s2)c1` | 11.32% | 7.658% | -3.39% |
| `Nc1ccc(C(=O)N2CCC(Oc3cccc(C(F)(F)F)c3)CC2)cn1` | 15.5% | -4.635% | 7.143% |
| `CN(Cc1ccco1)C[C@H]1OC[C@@H]2CCN(Cc3cccnc3)C[C@@H]21` | 13.21% | 4.438% | 2.703% |
| `O=C(CCn1c(C(F)(F)F)cc2cccnc21)N1CCOCC1` | 28.42% | 2.081% | 2.985% |
| `Cc1cccc(-n2nc(CC(C)C)nc2[C@H](C)O)c1` | 12.9% | 5.783% | 0% |
| `CCN1CCN(C(=O)NCc2cc[nH]n2)CC1` | 9.821% | 2.357% | 3.468% |
| `COc1cccc(CNc2c(C)nn(C(C)C)c2C)c1` | 17.95% | 7.825% | 5.056% |
| `CO[C@H]1CCN(Cc2nccs2)C[C@@H]1Cc1ccccc1` | 20.59% | -0.4412% | 5.911% |
| `COc1ncccc1CNC(=O)c1csc(Br)c1` | 11.11% | 8.18% | 1.538% |
| `CCc1cnc(N)nc1NCCN1CCCCC1` | 16.04% | -2.364% | -0.8368% |
| `Cn1ccc(CNC(=O)N2CCCC3(C2)OCCO3)c1` | 3.333% | 1.125% | 3.922% |
| `CCn1nc(C(C)C)cc1C(=O)N1CC(OCc2ccccc2F)C1` | 6.452% | 3.132% | 5.759% |
| `COc1cccc(CN2CCCCC2CN2CCOCC2)c1F` (centres undefined) | 10.45% | 6.544% | 4.255% |
| `O=C1CC[C@H](C(=O)N(CCc2ccccc2)C2CCOC2)N1` (some centres undefined) | 10.92% | 2.228% | -7.843% |
| `O=C(O)C1CCN(c2ccc(Sc3ccc(Br)cc3)nn2)CC1` | 1.695% | 0.03463% | 10.24% |
| `CCOc1ccccc1-c1cc2c(cc1C(N)=O)OCO2` | 11.84% | 7.999% | 3.448% |
| `CC(SCCNS(=O)(=O)c1cnn(C)c1)c1cccc(F)c1` (centres undefined) | 8.219% | -1.41% | 6.349% |
| `O=S(=O)(Nc1cnn(C2CCOCC2)c1)c1ccc2c(c1)CCO2` | 16.5% | 0.5706% | 2.174% |
| `CCn1c(C)nnc1SCCn1cc(-c2nccs2)nn1` | 9.836% | 3.306% | -4% |
| `CN(C)CC1CN(Cc2nnc(-c3ccccc3Cl)o2)CCO1` (centres undefined) | 12.16% | -0.3948% | 1.132% |
| `Oc1ccccc1-c1cc(-c2nc(C3CC3)n[nH]2)[nH]n1` | 6.612% | 6.629% | 2.521% |
| `CN(C)CCN(Cc1ccc(Cl)cc1)C(=O)c1cnccn1` | 12.33% | 2.068% | 10.84% |
| `CNS(=O)(=O)CC(=O)NCc1cc2c(s1)CCC(C)(C)C2` | 7.254% | -0.3578% | 6.077% |
| `CC1CCCCN1C(=O)CN1CCN(c2ccc3nncn3n2)CC1` (centres undefined) | 12.77% | -0.5861% | 2.29% |
| `CCc1cc(N2CCC(Nc3ccc4nnc(C)n4n3)CC2)ncn1` | 21.43% | 5.778% | 4.255% |
| `CN1CCC2(CC1)CN(C(=O)c1cccnc1)c1ccc(Cl)cc12` | 7.921% | 2.809% | -1.508% |
| `NC(=O)NC(=O)CNC1(c2ccc(Cl)cc2)CCCC1` | 25% | 1.511% | 11.18% |
| `CCc1cc(O)n2nc(C3CCCN3C(=O)c3ccccn3)cc2n1` (centres undefined) | 2.817% | 3.552% | -7.576% |
| `O=C(O)CCCC(=O)Nc1cnn(COc2ccc(F)cc2Cl)c1` | 8.85% | 5.827% | 6.14% |
| `Cc1ccc(CN2CCN(C3CCSCC3)CC2CCO)o1` (centres undefined) | -2.41% | 2.118% | -1.657% |
| `O=C(c1ccno1)N1CCCC(c2ncncc2-c2ccncc2)C1` (centres undefined) | -60% | -0.03803% | 0% |
| `CNC(=O)C1(c2cnccn2)CCCN1C(=O)c1ccccc1C` (centres undefined) | 21.88% | 0.8377% | 8.511% |
| `CCS(=O)(=O)N1CC(c2nc(-c3ccncc3)no2)C1` | 8.475% | 3.613% | 5.366% |
| `O=C(Nc1cn[nH]c1)c1ccc(O)nc1` | 21.6% | 0.2062% | 1.901% |
| `COc1ccccc1-c1csc(-c2cccc(C(=O)O)c2)n1` | -404% | 4.121% | -1.205% |
| `Cc1nnc(N2CC[C@H]3C[C@H](C(=O)N4CCOCC4)O[C@H]3C2)s1` | 3.008% | 1.083% | 7.182% |
| `Cc1cccc(OC2(C(=O)O)CCN(C(=O)CCc3ccco3)CC2)c1` | 1.639% | -4.71% | 4.721% |
| `CC(C)CC(=O)N1CCN(Cc2csc(-c3ncccn3)n2)CC1` | 13.39% | 1.51% | 5% |
| `O=C(C1CCCO1)N1CCCC2(CCN(c3cccnc3)CC2)C1` (centres undefined) | 11.54% | 2.822% | 6.145% |
| `O=C(NCCCOc1cccnc1)c1cn(Cc2ccccc2F)nn1` | -36.36% | 9.55% | 0% |
| `Cc1cnn(CC2CCCN2CCc2nc3ccccc3c(=O)[nH]2)c1` (centres undefined) | 19.1% | 6.435% | 2.256% |
| `CN1CCOC[C@H]1c1nc(-c2ccncc2)c[nH]1` | 24.32% | 8.743% | 4.478% |
| `CCn1c(C)cc(-c2csc(Cn3ccc(=O)[nH]c3=O)n2)c1C` | 12.61% | 3.923% | 14.71% |
| `O=C(NCCc1cccc(F)c1)c1nc2c(s1)CCCN2C(=O)C1CC1` | 4.505% | 2.243% | -9.945% |
| `CC(C)N1CCC(CC(=O)NC(C(=O)O)c2cccc(F)c2)CC1` (centres undefined) | 16.67% | 2.111% | 6.122% |
| `CCN1CC(NC(=O)Nc2nc(C)n(C(C)C)n2)CC1=O` (centres undefined) | 28.36% | -3.522% | 3.191% |
| `Cc1nnc(SCCC(=O)N(C)Cc2ccc(F)cc2F)[nH]1` | -6.667% | 4.744% | 4.046% |
| `OC(CN1CCN(Cc2cccc(F)c2)CC1)C1CC1` (centres undefined) | 9.917% | 3.079% | 2.041% |
| `CS(=O)(=O)c1ccc(CNC(=O)Nc2cn[nH]c2)cc1` | 14.55% | -0.5009% | 5.263% |
| `Cc1cc(-c2cnc(N3CCCC(C)C3)nc2C(C)C)on1` (centres undefined) | 1.399% | -0.9847% | -6.215% |
| `O=C(c1ccnnc1)N1C[C@@H](OCC2CCOCC2)[C@H]2OCCC[C@H]21` | 11.76% | 4.678% | -1.639% |
| `CCc1nc(CN2CCCN(C(=O)COC)CC2)cs1` | 18.87% | 5.469% | -2.5% |
| `O=C1CCCCN1CC(=O)N1CCCC(c2ccccc2)C1` (centres undefined) | 8.333% | 5.931% | 3.896% |
| `Cn1c(C(=O)Nc2nc[nH]n2)cc2ccccc21` | 21.05% | 1.959% | -2.439% |
| `C[C@@H]1CN(C(=O)C2(Cn3cccn3)CC2)CC[C@@]1(O)C1CC1` | -5.882% | -7.189% | 7.035% |
| `CC1(C)Cc2ccc(C(=O)NC3CCS(=O)(=O)C3)c(O)c2O1` (centres undefined) | 26.83% | 1.449% | 10.1% |
| `CCN(Cc1cc(-c2ccccn2)no1)C1CCS(=O)(=O)C1` (centres undefined) | 17.95% | 1.993% | 14.44% |
| `CCN1N=C(C(=O)N2CCCC(c3noc(C)n3)C2)CCC1=O` (centres undefined) | 4.396% | 3.81% | 1.807% |
| `O=C(c1ccncc1F)N1CC[C@@H]2OC(COCC3CC3)CC[C@@H]21` (some centres undefined) | 9.722% | 3.241% | 1.869% |